One sequence from article PMC5011358 can be followed below.

The test system of the data set is Six1 + Six4. The experiment in a line: EMSA. As to conditions: labeled probe, Six1 and Six4 mixed; EMSA as previously described (ref 38); pH and temperature not given; protein translated in vitro.

For at least one entry, the source does not settle the construct or the ends of the probe. At least one verdict was read from the data and is not stated in words by the source.

Take “TGGGGGGGCTCAGGTTTCTGTGGCGT (double strand) [Myogenin MEF3]”: the binding result is reported as “binds”.
